39 compounds from the supplement of paper PMC7024190 can be followed below.

The list shows a part of the results. This data set is noisy: repeats of one test often differ as much as different tests do.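 Human embryonic kidney cells were transiently transfected with a plasmid bearing a Renilla luciferase gene under the HSV-TK promoter. This first-round screen tests roughly ten thousand compounds for ones that increase reporter output.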

The subject of the assay is HEK 293FT. Kind of assay: log relative Renilla luciferase luminescence (reporter expression vs reference, reference not stated) (log (base not stated)); higher = higher recombinant reporter expression. The settings on record: 10 µM; time after transfection 48 h. As for the experimental part: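 HEK 293FT cells transiently transfected with pRL-TK (Renilla luciferase) were treated with compounds at 10 uM and luminescence was read about 42 h later. Values are log relative Renilla luminescence (log base and reference not stated). Single-pass screen; 2080 natural products library.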
In the case of `CC(=O)OC1CCC2(C)C3CCC4C(C)(CCC5C(C)(C)C(OC(C)=O)CCC45C)CC3=CCC2C1(C)C` (centres undefined) [Serratenediol diacetate], the log is 0.769.
As to `COc1cc(O)c(C(=O)/C=C/c2ccccc2)c(O)c1` [Pinostrobin chalcone], the log was -0.0495.
With `CCc1ncc(OC)c2c1[nH]c1ccccc12` [Crenatine], the log was -0.129.
The figure for `CC(=O)CCc1ccc(O)c(O)c1` [4-(3,4-Dihydroxyphenyl)-2-butanone] is 0.00469; for `COc1c2ccoc2c(Oc2c3ccoc3c(O)c3oc(=O)ccc23)c2oc(=O)ccc12` [Rivulobirin B] it is -0.0599; for `C=C1C(=O)O[C@H]2C[C@@]3(C)O[C@@H]3CC[C@@]3(C)O[C@@H]3C[C@H]12` [11(13)-Dehydroivaxillin] it is -0.117.
On to `CC1=CC(=O)CC(C)(C)[C@@]1(O)/C=C/[C@@H](C)O` [Vomifoliol], for which the log was -0.273.
Next, `COc1cc(C2Oc3c(OC)cc(/C=C/CO)cc3C2CO)ccc1O` (centres undefined) [Dehydrodiconiferyl alcohol]: 0.171.
The figure for `C[C@H]1[C@H](C)CC[C@]2(C(=O)O)CC[C@]3(C(=O)O)C(=CC[C@@H]4[C@@]5(C)CC[C@H](O[C@@H]6O[C@H](C)[C@@H](O)[C@H](O)[C@H]6O)C(C)(C)[C@@H]5CC[C@]43C)[C@H]12` [Quinovin] is -0.2; for `CC(C)(O)CC[C@H]1OC(C)(C)O[C@]1(C)[C@H]1CC[C@@]2(O)C3=CC(=O)[C@@H]4C[C@H]5OC(C)(C)O[C@H]5C[C@]4(C)[C@H]3CC[C@]12C` [Ecdysterone 2,3:20,22-diacetonide] it is 0.0425; for `C[C@@H]([C@H]1[C@@H](O)C[C@@]2(C)[C@@H]3CC[C@H]4C(C)(C)C(=O)C=C[C@@]45C[C@@]35CC[C@]12C)N(C)C` [Buxbodine B] it is -0.163.
Next, `COc1c(O)c(=O)n2c3ccccc3c3ccnc1c32` [5-Hydroxy-4-methoxycanthin-6-one]: 0.252.
Regarding `CCCCCCCCCCCCCCCC(=O)O[C@H]1CC[C@]2(C)[C@H]3CC=C4[C@@H]5CC(C)(C)CC[C@]5(C)CC[C@@]4(C)[C@]3(C)CC[C@H]2C1(C)C` [beta-Amyrin palmitate], the log came to 0.152.
The figure for `CC1(C)[C@H](O)CC[C@@]2(C)[C@@H]3CC[C@](C)([C@@H](O)CO)C=C3CC[C@H]12` [Darutigenol] is -0.155; for `CC(=O)Oc1cc(O)cc2oc(-c3ccccc3)cc(=O)c12` [5-Acetoxy-7-hydroxyflavone] it is -0.0137.
Regarding `C[C@@H]1CC[C@]2(C(=O)O)CC[C@]3(C)C(=CC[C@@H]4[C@@]5(C)CC[C@H](O)C(C)(C)[C@@H]5CC[C@]43C)[C@@H]2[C@]1(C)O` [Pomolic acid], the log is -0.264.
As for `COc1cc(/C=C/C=O)ccc1O` [Coniferaldehyde], the log stood at 0.122.
The figure for `CC(=O)OC[C@H](OC(C)=O)[C@]1(C)C=C2CC[C@@H]3C(C)(C)[C@H](O[C@@H]4O[C@H](CO)[C@@H](O)[C@H](O)[C@H]4O)CC[C@@]3(C)[C@@H]2CC1` [15,16-Di-O-acetyldarutoside] is 0.363.
The figure for `CC1(C)OC[C@]2(C[C@@]34CC[C@@H]5C(C)(C)CCC[C@@]5(C)[C@@H]3CC[C@@H]2C4)O1` [ent-16beta,17-Isopropylidenedioxykaurane] is 0.085; for `CC(=O)OC[C@@]12[C@H]([C@H](OC(=O)c3ccccc3)[C@]3(C(C)(C)O)C[C@H](O)C(C)=C3[C@@H](O)[C@@H]1O)[C@]1(OC(C)=O)CO[C@@H]1C[C@@H]2O` [13-O-Deacetyltaxumairol Z] it is 0.0981.
Next, `COc1cc(OC/C=C(\C)CCC=C(C)C)cc2oc(=O)ccc12` [7-Geranyloxy-5-methoxycoumarin]: -0.324; `C/C=C1/CN2CCC1C(CO)(C(=O)OC)c1[nH]c3ccccc3c1C2` (centres undefined) [19,20-(E)-Isovallesamine]: -0.344.
In the case of `COC1=CC(=O)C=C(OC)C1(O)CC(C)=O` [2,6-Dimethoxy-1-acetonylquinol], the log is -0.00754.
In the case of `CC(C)=CCc1cc2ccc(O)cc2oc1=O` [7-Hydroxy-3-prenylcoumarin], the log was -0.119.
For the compound `C=C1[C@@H](OC(=O)/C=C/c2ccccc2)C[C@H](OC(C)=O)[C@@]2(C)[C@@H](OC(C)=O)[C@H](OC(C)=O)C3=C(C)C(=O)C[C@@H]([C@@H](OC(C)=O)[C@H]12)C3(C)C` [Taxinine B], the log was -0.0654.
The figure for `COc1cc(C(=O)OCC2=C[C@@H](O)[C@@H]3C=CO[C@@H](O[C@@H]4O[C@H](CO)[C@@H](O)[C@H](O)[C@H]4O)[C@H]23)ccc1O` [10-O-Vanilloylaucubin] is 0.153.
Take `COC(=O)[C@@H](Cc1ccc(O)c(O)c1)OC(=O)/C=C/c1ccc(O)c(O)c1` [Methyl rosmarinate]: the log amounted to 0.0193.
As for `CC1=CC(C)(C)N=C(C)C1=O` [2,4,6,6-Tetramethyl-3(6H)-pyridinone], the log is -0.0315.
The figure for `COC[C@@H]1Cc2cc(OC)c3c(c2[C@H](c2ccc(OC)c(OC)c2)[C@H]1COC)OCO3` [Hypophyllanthin] is 0.0788; for `CC[C@H](CC[C@@H](C)[C@H]1CC[C@H]2[C@@H]3CC(=O)[C@H]4CC(=O)CC[C@]4(C)[C@H]3CC[C@]12C)C(C)C` [Stigmastane-3,6-dione] it is 0.0307.
Next, `COc1cc(C(O)[C@@H]2CO[C@H](c3cc(OC)c(O)c(OC)c3)[C@H]([C@H]3CO[C@@H](C(O)c4ccc(O)c(OC)c4)CO[C@H]3c3cc(OC)c(O)c(OC)c3)CO2)ccc1O` (some centres undefined) [Phyllostadimer A]: 0.0487; `COc1cc2oc(-c3ccc(O)cc3)c(OC)c(=O)c2c(O)c1OC` [Penduletin]: -0.106.
Regarding `CC(C)(Cl)C(O)COc1c2occc2cc2ccc(=O)oc12` (centres undefined) [Isosaxalin], the log was -0.0232.
`COc1cc(-c2oc3cc(OC(C)=O)c(OC)c(OC(C)=O)c3c(=O)c2OC)ccc1OC(C)=O` [Jaceidin triacetate]: the log was -0.184.
The figure for `COc1ccccc1/C=C/C(=O)c1c(OC)cc(O)c(OC)c1O` [2',4'-Dihydroxy-2,3',6'-trimethoxychalcone] is 0.0237; for `COC(=O)[C@H]1[C@H]2C[C@H]3c4[nH]c5ccccc5c4CCN3C[C@H]2CC[C@@H]1O` [alpha-Yohimbine] it is 0.143; for `COc1cc(/C=C/C(=O)NCCc2ccc(O)c(OC)c2)ccc1O` [N-trans-Feruloyl-3-methoxytyramine] it is -0.467.
Next, `OC[C@@H](O)[C@@H](O)[C@@H](O)[C@@H](O)CO` [Allitol]: 0.771; `COc1cc(C2Oc3cc4oc(=O)ccc4cc3OC2CO)cc(OC)c1O` (centres undefined) [Moluccanin]: -0.39.
